Source: publication PMC10235067, “Increased renal elimination of endogenous and synthetic pyrimidine nucleosides in concentrative nucleoside transporter 1 deficient mice” (Nature Communications, 2023)
Several values for one entry are separate records, joined by “and”; a condition that tells them apart may be missing. Equal values may be shown once.

Tested on: CNT1
Assay: Untargeted metabolomics of Slc28a1-/- vs Slc28a1+/+ mouse urine (24 h, ad libitum)
Conditions: Slc28a1-/- / Slc28a1+/+

| Compound | Fold Change | log2(FC) |
| --- | --- | --- |
| 1-hydroxyhexanoylglycine | 2E-01 and 0.1948 | -2.4 and -2.3603 |
| 5'-Methylthioadenosine | 0.5352 | -0.902 |
| CCCCSCCC(N)C(=O)O (racemic) [D,L-Buthionine] | 1.4986 | 0.5836 |
| CCCCCCC(N)C(=O)O (racemic) [DL-2-Aminooctanoic acid] | 0.6841 | -0.5477 |
| CC(=O)NC(CCS)C(=O)O (racemic) [N-Acetyl-DL-homocysteine] | 1E-01 and 0.1376 | -2.9 and -2.8614 |
| Cn1c(N)nc2nc[nH]c2c1=O [1-Methylguanine] | 1.4659 | 0.5518 |
| Cn1cnc2c(ncn2[C@@H]2O[C@H](CO)[C@@H](O)[C@H]2O)c1=O [1-Methylinosine] | 1.555 | 0.637 |
| NC(CCC(=O)NC(CSC1C=Cc2cccc([N+](=O)[O-])c2C1O)C(=O)NCC(=O)O)C(=O)O (stereo not shown) [1-Nitro-7-glutathionyl-8-hydroxy-7,8-dihydronaphthalene] | 3E-01 and 0.2846 | -1.8 and -1.8133 |
| Nc1ccn([C@H]2C=C[C@@H](CO)O2)c(=O)n1 [2',3'-Didehydro-2',3'-dideoxycytidine] | 0.4392 | -1.1871 |
| CC1=C(C)C(=O)CCC1 [2,3-Dimethyl-2-cyclohexen-1-one] | 9E-02 and 0.09193 | -3.4 and -3.4433 |
| C=CC=CC=O [2,4-Pentadienal] | 4E-01 and 0.4156 | -1.3 and -1.2669 |
| CCC=CCC=CCO [2,5-Octadien-1-ol] | 0.07669 | -3.7049 |
| O=C(O)[C@H]1O[C@@H](Oc2cccc3ccc(O)nc23)[C@H](O)[C@@H](O)[C@@H]1O [2,8-Dihydroxyquinoline-beta-D-glucuronide] | 0.4499 | -1.1524 |
| NC(CCCCC(=O)O)C(=O)O (stereo not shown) [2-Aminoheptanedioic acid] | 3E-01 and 0.289 | -1.8 and -1.7907 |
| Nc1ccccc1C(=O)NCC(=O)O [2-Aminohippuric acid] | 5E-01 and 0.4532 | -1.1 and -1.1417 |
| Nc1nc(F)nc2c1ncn2[C@H]1CC[C@@H](CO)O1 [2-Fluoro-2',3'-dideoxyadenosine] | 3E-01 and 0.2588 | -2.0 and -1.9501 |
| Nc1nc(F)nc2c1ncn2[C@@H]1O[C@H](CO)[C@@H](O)[C@H]1O [2-Fluoroadenosine] | 0.6024 | -0.7311 |
| C=C(C)C1CC(=O)C(C)=C(O)C1 (stereo not shown) [2-Hydroxy-p-mentha-1,8-dien-6-one] | 3E+00 and 3.1916 | 1.7 and 1.6743 |
| O=C(O)c1cc2ccccc2[nH]1 [2-Indolecarboxylic acid] | 0.4561 | -1.1325 |

| Compound | Fold Change | log2(FC) |
| --- | --- | --- |
| CC1=NCCO1 [2-Methyl-2-oxazoline] | 0.8023 | -0.3178 |
| O=C1CCCCN1 [2-Piperidinone] | 3E+00 and 2.8933 | 1.5 and 1.5327 |
| CCCCC(O)C(=O)NCC(=O)O (stereo not shown) [2-hydroxyhexanoylglycine] | 4E-01 and 0.4431 | -1.2 and -1.1742 |
| CCCCCCC=CC(=O)NCC(=O)O [2-nonenoylglycine] | 1.4252 | 0.5112 |
| CCCCCC=CC(=O)NCC(=O)O [2-octenoylglycine] | 0.4909 | -1.0264 |
| Cc1cn([C@H]2CC[C@@H](CO)O2)c(=O)[nH]c1=O [3'-Deoxythymidine] | 1.2839 | 0.3606 |
| CCC1(CCC(C)(C)O)C(=O)NC(=O)NC1=O [3'-Hydroxyamobarbital] | 1.4617 | 0.5476 |
| CC1C(=O)C(=O)CC1(C)C (stereo not shown) [3,4,4-Trimethyl-1,2-cyclopentanedione] | 4.0071 | 2.0026 |
| CCCCCCC(O)CCCCC(O)CC(=O)OC(CC(=O)[O-])C[N+](C)(C)C (stereo not shown) [3,8-Dihydroxytetradecanoylcarnitine] | 2E+02 and 197.61 | 7.6 and 7.6265 |
| CC(C)c1ccc(CCC=O)cc1 [3-(4-Isopropylphenyl)propanal] | 4E+00 and 4.1565 | 2.1 and 2.0554 |
| C=C1C(=O)OC2/C=C(\C)C(O)C/C=C(\C)CC(OC(=O)/C(C)=C\C)C12 (stereo not shown) [3-Epinobilin] | 4E+02 and 443.23 | 8.8 and 8.7919 |
| CC(O)CC(=O)OC(CC(=O)[O-])C[N+](C)(C)C (stereo not shown) [3-Hydroxybutyrylcarnitine] | 2E-02 and 0.01605 | -6.0 and -5.9611 |
| CCC=CCC(O)=CC(=O)OC(CC(=O)[O-])C[N+](C)(C)C (stereo not shown) [3-Hydroxyocta-2,5-dienoylcarnitine] | 14.197 | 3.8275 |
| CCCCCCCCCCCC(O)CC(=O)OC(CC(=O)[O-])C[N+](C)(C)C (stereo not shown) [3-Hydroxytetradecanoyl carnitine] | 3E+01 and 28.002 | 4.8 and 4.8074 |
| Cn1c(=N)ccn([C@@H]2O[C@H](CO)[C@@H](O)[C@H]2O)c1=O [3-Methylcytidine] | 1.4174 | 0.5033 |
| Cn1c(N)ccnc1=O [3-Methylcytosine] | 1.9061 | 0.9306 |
| Cn1c(N)nc(=O)c2[nH]cnc21 [3-Methylguanine] | 1.5501 | 0.6323 |
| O=C(O)CC(=O)CC(=O)O [3-Oxoglutaric acid] | 0.3682 | -1.4414 |
| CCCCC=C(O)CC(=O)NCC(=O)O [3-hydroxyoct-3-enoylglycine] | 0.3149 | -1.6672 |

| Compound | Fold Change | log2(FC) |
| --- | --- | --- |
| CC(=O)Nc1ccc(C(=O)NCC(=O)O)cc1 [4-Acetylaminohippuric acid] | 2.2958 | 1.199 |
| CC1(C)CC(O)CC(C)(C)N1[O] [4-Hydroxy-2,2,6,6-tetramethylpiperidine-1-oxyl] | 0.3835 | -1.3826 |
| CC1=C(C=O)C(C)(C)C=C(O)C1=O [4-Hydroxy-2,6,6-trimethyl-3-oxo-1,4-cyclohexadiene-1-carboxaldehyde] | 3E+00 and 3.2069 | 1.7 and 1.6812 |
| NC(=O)c1cnccc1O [4-Hydroxynicotinamide] | 0.5912 | -0.7583 |
| NC(C(=O)O)c1ccc(O)cc1 (stereo not shown) [4-Hydroxyphenylglycine] | 0.426 | -1.2312 |
| Cc1ncc(CO)c(C(=O)O)c1O [4-Pyridoxic acid] | 1.3575 | 0.441 |
| CCC(O)CCC(=O)NCC(=O)O (stereo not shown) [4-hydroxyhexanoylglycine] | 3E-01 and 0.3308 | -1.6 and -1.5962 |
| COc1c(-c2ccccc2)oc2cc(O)cc(O)c2c1=O [5,7-Dihydroxy-3-methoxyflavone] | 0.1186 | -3.0764 |
| CC(=O)NCCCCC(=O)O [5-Acetamidovalerate] | 3E+00 and 3.1934 | 1.7 and 1.6751 |
| CCCC/C=C/CCCC(=O)OC(CC(=O)[O-])C[N+](C)(C)C (stereo not shown) [5-Decenoylcarnitine] | 7E+00 and 7.016 | 2.8 and 2.8106 |
| CCCCCCc1ccc(CCCCCCCC(=O)O)o1 [5-Hexyl-2-furanoctanoic acid] | 6.7762 | 2.7605 |
| N[C@@H](Cc1c[nH]c2ccc(O)cc12)C(=O)O [5-Hydroxy-L-tryptophan] | 1.5232 | 0.6071 |
| CC=CCCC(O)CCCC(=O)OC(CC(=O)[O-])C[N+](C)(C)C (stereo not shown) [5-Hydroxydec-8-enoylcarnitine] | 0.1788 | -2.4833 |
| Cc1cn([C@H]2C[C@H](O)[C@@H](CO)O2)c(=O)nc1N [5-Methyldeoxycytidine] | 2.0491 | 1.035 |
| CCC1=CCC(=O)O1 [5-ethyl-(3H)-furan-2-one] | 4.0037 | 2.0013 |
| CCC=CCCCC(=O)NCC(=O)O [5-octenoylglycine] | 0.4132 | -1.2752 |
| C=C=CCCCCC(=O)NCC(=O)O [6,7-octadienoylglycine] | 1.548 | 0.6304 |
| CC(=O)NCCCC(=O)CC(=O)O [6-Acetamido-3-oxohexanoic acid] | 0.6215 | -0.6862 |
